Source: PubChem BioAssay AID602196 (INSERM, 2012)

Screen: 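Modifiers of cisplatin sensitivity in A549 cells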
Cells: human A549 lung cancer cells
Reagent: siRNA pair against human genes
Timing: 48 h transfection before cisplatin; time from cisplatin to read-out not stated
Treatment: cisplatin at a dose killing half of control-siRNA cells; exact dose and duration not given
Read-out: 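Cisplatin cell death as a shift from the 50% death seen with control siRNA; siRNAs toxic or growth-blocking alone scored 0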
Scale: two-siRNA summed score (-2 to +2): higher = both siRNAs protect from cisplatin killing; -2 means both sensitise
Rule for the call: 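siRNAs harmful alone (LDH or WST-1) get 0; others get +1 for less and -1 for more cisplatin killing; genes are active when the two siRNAs give the same sign, summing to ±2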
Calls: active = both siRNAs shift cisplatin killing the same way; inactive = no consistent shift, or siRNA harmful alone
Shown is an unselected part of about 23,000 deposited reagents. Over the whole deposit, 455 (2%) are marked active. 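Active includes both protection and sensitisation; some change values fall well beyond the stated -50 to +50 range.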 Entries without a mark were called inactive. The numbers tell different reagents against one gene apart. Not all columns of the deposit are shown. No sequences are given here. Not stated in the record: the amount of reagent.

With LOC137814, how do the results read?
two-siRNA summed score (-2 to +2): 0

For ADGRF1 (adhesion G protein-coupled receptor F1) #1, what was measured?
two-siRNA summed score (-2 to +2): 0

Which result is listed for ADGRF1 (adhesion G protein-coupled receptor F1) #2?
two-siRNA summed score (-2 to +2): 0

Which result is listed for RAPGEF4 (Rap guanine nucleotide exchange factor 4)?
two-siRNA summed score (-2 to +2): 1

For LOC441903, what was measured?
two-siRNA summed score (-2 to +2): 0

For LOC440604, how do the results read?
two-siRNA summed score (-2 to +2): 0

For H3C10 (H3 clustered histone 10), how do the results read?
two-siRNA summed score (-2 to +2): 0

What is on record for FETUB (fetuin B)?
two-siRNA summed score (-2 to +2): -1

With LYZL4 (lysozyme like 4), how do the results read?
two-siRNA summed score (-2 to +2): 0

With LOC441072, what does the deposit list?
two-siRNA summed score (-2 to +2): 0

With NAA38 (N-alpha-acetyltransferase 38, NatC auxiliary subunit), how do the results read?
two-siRNA summed score (-2 to +2): 0

Which result is listed for LHFPL6 (LHFPL tetraspan subfamily member 6)?
two-siRNA summed score (-2 to +2): 1

With SIDT1 (SID1 transmembrane family member 1), how do the results read?
two-siRNA summed score (-2 to +2): 1

With KIT (KIT proto-oncogene, receptor tyrosine kinase), how do the results read?
two-siRNA summed score (-2 to +2): 0

With DOLK (dolichol kinase), how do the results read?
two-siRNA summed score (-2 to +2): 0

What did the screen give for LOC441033?
two-siRNA summed score (-2 to +2): 0

What is on record for TNPO3 (transportin 3)?
two-siRNA summed score (-2 to +2): 0

What did the screen give for BHLHE23 (basic helix-loop-helix family member e23)?
two-siRNA summed score (-2 to +2): 0

For ATF6B (activating transcription factor 6 beta), what was measured?
two-siRNA summed score (-2 to +2): 0

How did the screen score PIM2 (Pim-2 proto-oncogene, serine/threonine kinase)?
two-siRNA summed score (-2 to +2): 1

A portion taken from the entries so far, as a working copy:
RAPGEF4 (Rap guanine nucleotide exchange factor 4): two-siRNA summed score (-2 to +2) = 1
LOC441903: two-siRNA summed score (-2 to +2) = 0
LOC440604: two-siRNA summed score (-2 to +2) = 0
H3C10 (H3 clustered histone 10): two-siRNA summed score (-2 to +2) = 0
FETUB (fetuin B): two-siRNA summed score (-2 to +2) = -1

Further results follow.
For FLJ46552 (retired record), how do the results read?
two-siRNA summed score (-2 to +2): 0

Which result is listed for HDC (histidine decarboxylase)?
two-siRNA summed score (-2 to +2): 0

For WNT4 (Wnt family member 4), how do the results read?
two-siRNA summed score (-2 to +2): 0

Which result is listed for BRI3 (brain protein I3)?
two-siRNA summed score (-2 to +2): 0

For SYMPK (symplekin scaffold protein), what does the deposit list?
two-siRNA summed score (-2 to +2): 0

How did the screen score CELF6 (CUGBP Elav-like family member 6)?
two-siRNA summed score (-2 to +2): 0

With MIXL1 (Mix paired-like homeobox), what does the deposit list?
two-siRNA summed score (-2 to +2): 0

For SLC2A1, what was measured?
two-siRNA summed score (-2 to +2): 1

What did the screen give for KYAT3 (kynurenine aminotransferase 3)?
two-siRNA summed score (-2 to +2): 1

With LINC00314 (long independently transcribed non-coding RNA 314), how do the results read?
two-siRNA summed score (-2 to +2): 0

For AMIGO3 (adhesion molecule with Ig like domain 3), how do the results read?
two-siRNA summed score (-2 to +2): 1
